Test results: publication PMC12087451

Protein sequences, listed by entry. Tags and fused reporters are not part of them.
UniProt P08515, whole entry: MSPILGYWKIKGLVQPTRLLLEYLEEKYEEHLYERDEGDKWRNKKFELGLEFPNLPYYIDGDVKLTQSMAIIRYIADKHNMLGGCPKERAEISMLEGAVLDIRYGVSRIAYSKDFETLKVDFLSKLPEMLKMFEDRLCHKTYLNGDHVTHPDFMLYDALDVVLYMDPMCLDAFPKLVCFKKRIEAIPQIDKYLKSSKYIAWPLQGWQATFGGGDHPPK

Assays:
[1] = system: GST-SmbHLH85 (Salvia miltiorrhiza); experiment: EMSA; details: Chemiluminescent EMSA kit (Beyotime GS009) EMSA/Gel-Shift binding buffer, 25 C, 10 min then 20 min with biotin probe, 6% PAGE; salt and pH not stated; recombinant protein; protein details: N-terminal GST (pGEX-4T-1)
[2] = system: GST-SmbHLH65 (Salvia miltiorrhiza); experiment: EMSA; details: Chemiluminescent EMSA kit (Beyotime GS009) EMSA/Gel-Shift binding buffer, 25 C, 10 min then 20 min with biotin probe, 6% PAGE; salt and pH not stated; recombinant protein; protein details: N-terminal GST (pGEX-4T-1)
GST = GST (UniProt P08515); experiment: EMSA; details: Chemiluminescent EMSA kit (Beyotime GS009) EMSA/Gel-Shift binding buffer, 25 C, 10 min then 20 min with biotin probe, 6% PAGE; salt and pH not stated; recombinant protein; protein details: GST
[3] = system: GST-SmbHLH85 (Salvia miltiorrhiza); experiment: competition with a labelled probe; details: unlabelled mutant competitor, stated at the same amount as the biotin probe; Chemiluminescent EMSA kit (Beyotime GS009) EMSA/Gel-Shift binding buffer, 25 C, 10 min then 20 min with biotin probe, 6% PAGE; salt and pH not stated; recombinant protein; protein details: N-terminal GST (pGEX-4T-1)

## CATTTCCACATGCAATTACATTTCCACATGCAATTACATTTCCACATGCAATTA (double strand) [pSmCPS1 E-box probe (3 copies)]
[1]
  binding result: binds
[2]
  binding result: no binding

## TTCATTGACCAAATTTCATTGACCAAATTTCATTGACCAAAT (double strand) [pSmbHLH65 W-box probe (3 copies)]
GST
  binding result: no binding

## AAAGGCAAAAAATTTTTAAAAGGCAAAAAATTTTTAAAAGGCAAAAAATTTTTA (double strand) [pSmDXS2-M cold probe]
[3]
  binding result: no binding

## AAAGGCCATGTGTTTTTAAAAGGCCATGTGTTTTTAAAAGGCCATGTGTTTTTA (double strand) [pSmDXS2 E-box probe (3 copies)]
[1]
  binding result: binds
[2]
  binding result: no binding

## CATTTCAAAAAACAATTACATTTCAAAAAACAATTACATTTCAAAAAACAATTA (double strand) [pSmCPS1-M cold probe]
[3]
  binding result: no binding

For at least one entry, the source does not settle the construct or the ends of the probe. For some of these results: No signal at the amounts used counts as a negative.
